Laboratory results reported in PubChem BioAssay AID1347423 (Functional Genomics Laboratory (NCATS/FGL), 2020).
In all, about 52,000 sequences went through this assay and about 210 (0.4%) were called active.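 How the source made its calls: active means gene whose silencing raises cell survival under the drug, median off-target-corrected z-score across its silencing RNAs 2 or more; inactive means the rest.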 The list shows a part of the results.

Assay: Resistance to Poly (ADP-Ribose) Polymerase inhibitor: Gene Identification via Genome-wide siRNA Screen
Conditions: mouse BRCA2 R2336H ES cells, olaparib, CellTiter-Glo viability; active compounds read high
How it was run: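 Genome-wide siRNA screen (3 siRNAs/gene, 20 nM) in mouse ES cells carrying hypomorphic BRCA2 R2336H; olaparib 500 nM added 48 h post-transfection, CellTiter-Glo viability 72 h later. Normalized to plate-median negative control; MAD z-scores, gene median, seed-adjusted.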

| Sequence | z-score |
| --- | --- |
| GGUUCUGGCUCUUCUCUGUTT against Mogat2 | inactive: -1.48 |
| GGAGCAAAAGAAGAAGAACTT against Mtdh | inactive: -0.0748 |
| GCUCAUGUUGCUGUUAAUATT against 6230416J20Rik | inactive: -1.04 |
| GGAUCUGAUGCGUCAGAGATT against Tnrc15 | inactive: -0.861 |
| CCAUACAUCCGAGAGUUUGTT against Snrp70 | inactive: -2.85 |
| GGAACACAUCAACAUUCACTT against Cttn | inactive: -0.156 |
| GGCCAAGAUCAUCUUUGUGTT against Ak1 | inactive: -1.33 |
| GGAGCUGCUAUAGAAGUACTT against Ankrd23 | inactive: -1.53 |
| GGAAGUGAAGAUGAUGAAUTT against Cpsf3 | inactive: 0.369 |
| GGGAAAUGCUGAUUCUCGATT against 9230117E20Rik | inactive: 0.891 |
| CCAAUCAAUUCUCAGCGACTT against Sufu | inactive: -0.473 |
| CCGAUUGAAUGAACAACGGTT against Zfp131 | inactive: -1.63 |
| CCAAAUUGGGUCUAUAAGGTT against 4930517K11Rik | inactive: 0.301 |
| GGUCUUUGUAUGUCUGUUUTT against Rad51l3 | inactive: -0.375 |
| GGACUCUGUAGUUGAAGAUTT against Pogz | inactive: -0.377 |
| GUAUGCUGGCAGCUCAUUGTT against Klra6 | inactive: 2.14 |
| CCGAAGUGCAACAAGCCAATT against Abl2 | inactive: -0.134 |
| GGAAAACACAACAUGAUACTT against Doc2b | inactive: -0.334 |
| CGUAUGAAGCUUAAUAGCATT against Polq | inactive: -0.632 |
| GGUGUGCAUUGGAAUUAUGTT against Mogat1 | inactive: 0.198 |
| CCUUGUCCUAUGUUAGGCATT against E030025D05Rik | inactive: -0.598 |
| CCUGUACAUUGUGUAAUGUTT against Pcdh8 | inactive: 1.17 |
| GGAGAUUUCCAAGAUUCUGTT against Abcc4 | inactive: 0.188 |

A section from the list above, as a working copy:

| Sequence | z-score |
| --- | --- |
| CCUGUACAUUGUGUAAUGUTT against Pcdh8 | inactive: 1.17 |
| GGAGAUUUCCAAGAUUCUGTT against Abcc4 | inactive: 0.188 |

More records.

| Sequence | z-score |
| --- | --- |
| CCCAAGGUGAUGGUGUCCUTT against Hspa1l | inactive: 0.318 |
| GAUGAAGCUGCUUUACCACTT against Hes5 | inactive: -0.507 |
| GGAGCCAUUAUAUAUGUCATT against Abi2 | inactive: 0.542 |
| GCUGAAAAUUCCUUCCCGATT against Laf4l | inactive: 0.29 |
| GCUACUAUGUGCCUGUGACTT against Oc90 | inactive: -1.84 |
| GGUUCUUUUGCCUUCAGUGTT against Slc7a10 | inactive: -0.409 |
| GUUCUGCUUUUUGUCAUAUTT against Olfr1431 | inactive: -0.586 |
| GGCAAGUUAAAAAUGGUAGTT against Tjp1 | inactive: 0.125 |
| GGACUGGUUUUUUUUUUGUTT against St5 | inactive: 0.803 |
| GGAAUAAUAUGCAUGUAGATT against Rab21 | inactive: 1.22 |
| GGAGUAGUGAAGAUUCGGATT against Fdft1 | inactive: 0.324 |
| GGCCUGAAGACAGACAUGATT against C030016D13Rik | inactive: -0.808 |
| GGCUAUUUUUUAGCAAAGATT against Wasl | inactive: 0.0356 |
| GGGCUGAGUUAGAUUAAAATT against Cds1 | inactive: 0.138 |
| GGAAGUGGUUGCUUAGGCATT against 1700041G16Rik | inactive: -0.595 |
| GCUGUAUGGGAAGGGUUACTT against AU067695 | inactive: -2.22 |
| GGAAGAUGAAAGUUCCAUATT against 4932422E22Rik | inactive: 0.29 |
| GUACACUCAAUCACUCUUGTT against MGC59529 | inactive: 0.611 |
| GCUUUAAUGCCAGUUUGGGTT against Olfr1391 | inactive: -0.381 |
| CGGGAUUUGAAAGACUCAGTT against A530032D15Rik | inactive: 0.268 |
| CGAUGGUACACUCAAUGAUTT against Hk2 | inactive: 0.452 |
| GGUUGCUUGGAAUUAAAAGTT against Klhl1 | active: 1.01 |
| GGCCAAGAAAAUGAUUGCATT against Gpr19 | inactive: -1.4 |

| Sequence | z-score |
| --- | --- |
| GGAUGAACUCAUGAGAGCCTT against Ncb5or | inactive: 0.069 |
| GCCAGGCAACGAAACUCAGTT against Leng1 | inactive: -0.671 |
| GGACAAUCUCUUCAGGAGUTT against Gzme | inactive: 0.706 |
| GGACAAGCAGUCCACUUGGTT against Ski | inactive: -0.218 |
| CGAGUUGAUUAAAGAUUGUTT against E2f6 | inactive: 0.528 |
| CCAGGCAUGGAAAUCAACUTT against Ramp3 | inactive: -0.0663 |
| GCGAGAGCUAAAGUAAAAUTT against Egln1 | inactive: -0.0385 |
| GGCUGGCAAACUCAAAAAATT against A930006D11 | inactive: 0.605 |
| CCUCUUGGUUAAAUAAUGUTT against Rnf103 | inactive: 0.183 |
| GGUCUUUUUGGUCUUAUUUTT against Olfr293 | inactive: -0.285 |
| GCCAACCUCUUAAACACUATT against Trpm5 | inactive: -0.402 |
| GGAAAGUGACUGCAUGUUCTT against 1700012G19Rik | inactive: 1.09 |
| GCUUCCUCUACAUCCUGCUTT against Kcnk15 | active: 2.57 |
| CCAGGAAUCUAGAUAAUAGTT against BC031181 | inactive: -0.36 |
| GGAAAAGCUGAAGGAAAAUTT against 1110007A13Rik | inactive: -3.08 |
| GGAAUACAAUGUCUCCAUCTT against Il3ra | inactive: -0.00788 |
| GGAACAGAAAGAAAAAGACTT against Plcd4 | inactive: 1.55 |
| CGUGUUUGUAGAUAAACCATT against Kcnh8 | inactive: -1.39 |
| GAUGCAAAGUUUCUUCUUCTT against Olfr745 | inactive: 0.682 |
| GGACUCAGAAGAAAUGGACTT against Osbpl6 | inactive: 1.31 |
| GCUACACCCGCAUGACAAATT against Trit1 | inactive: -0.139 |
